The values that follow come from publication PMC7819943, “Rice protein-binding microarrays: a tool to detect cis-acting elements near promoter regions in rice”.

The list shows a part of the results.

This assay deals with T1, OsSMF1 (Oryza sativa, UniProt Q6ZLB0 1-436).
T1 sequence: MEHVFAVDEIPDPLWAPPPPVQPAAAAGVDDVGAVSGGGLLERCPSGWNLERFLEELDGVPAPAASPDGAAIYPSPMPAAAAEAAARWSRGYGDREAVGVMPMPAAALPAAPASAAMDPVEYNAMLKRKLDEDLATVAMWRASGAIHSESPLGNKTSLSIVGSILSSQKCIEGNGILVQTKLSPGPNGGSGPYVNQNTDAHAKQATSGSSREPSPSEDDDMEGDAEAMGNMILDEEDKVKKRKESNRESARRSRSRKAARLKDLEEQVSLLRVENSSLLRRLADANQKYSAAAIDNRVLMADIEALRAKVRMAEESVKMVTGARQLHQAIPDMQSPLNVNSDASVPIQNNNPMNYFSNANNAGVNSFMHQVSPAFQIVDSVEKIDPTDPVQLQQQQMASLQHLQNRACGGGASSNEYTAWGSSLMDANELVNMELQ
The assay can be described thus: protein-binding microarray (RPBM); PBS, 2% BSA, 51.3 ng/ul salmon testes DNA, 50 uM zinc acetate, 200 nM TF, 25 C, 1 h; high values mean tight binding. To be noted: protein: recombinant; tags: N-terminal polyhistidine and DsRed monomer fusion (pET32a); chain copies: 2; label: CyDye5-dUTP incorporated in the synthesized complementary strand; 3' TTTTT single-stranded linker to array surface; dsDNA, one strand shown. In a few lines:
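Binding signal is defined as the fluorescence intensity of each feature in arbitrary units, read on an Axon 4000B scanner. Transcription factors with N-terminal polyhistidine and DsRed fusions came from E. coli BL21-CodonPlus and were purified on Ni–NTA. They were incubated at 200 nM for 1 h at 25 °C on a custom Agilent array that had been made double-stranded with Cy5-dUTP, with 50 µM zinc acetate present, and the array was washed.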
Take “GCCGTCGCTGCTGCTCAAGGGCCTCGTCGCGTGCACCGGCCGGAGTCACCTAGTGCAG”: the binding signal is 3220 fluorescence intensity (a.u.).

With “TCGCCCTCTCGTGACGTCATCCTCCCATCTATGGAAGACCCGGAGTCACCTAGTGCAG”, the binding signal is 17300 fluorescence intensity (a.u.).

For “CGTCCGGTGACTGACGTACGTGGATATGTTTTCATTTGAACGGAGTCACCTAGTGCAG”, the binding signal is 4930 fluorescence intensity (a.u.).

For “CATGTATGACACATCAATTTGAAATCATGATGCATATGCACGGAGTCACCTAGTGCAG”, the binding signal is 6260 fluorescence intensity (a.u.).

For “ATTCATTAATATGTGAACTTTAGTAATGATGACACTACATCGGAGTCACCTAGTGCAG”, the binding signal is 3860 fluorescence intensity (a.u.).

Take “GCTAGAAAATGTAGAGTGAGAGCAAAGTGTGATAAATGCACGGAGTCACCTAGTGCAG”: the binding signal was 4340 fluorescence intensity (a.u.).

For the sequence “GGTGTGTGTATGTGTTTATATGGTGAGTGTACACACGTTGCGGAGTCACCTAGTGCAG”, the binding signal was 3150 fluorescence intensity (a.u.).

For “TTAGCTGAATCGTCTTCGTTAGCAGTGAGAGTGACAGACGCGGAGTCACCTAGTGCAG”, the binding signal is 3160 fluorescence intensity (a.u.).

“CCACTGGACCATAACTGGGCCCAGCACACAGAAACAAATCCGGAGTCACCTAGTGCAG”: the binding signal was 44700 fluorescence intensity (a.u.).

As for “AAATGTCACATCGATGTCACGTGGAAATAATATCTAGTTACGGAGTCACCTAGTGCAG”, the binding signal is 4810 fluorescence intensity (a.u.).

With “GTAGCTCGTCGTCACTGCCCATAGTACTCTGGCTTAGCTACGGAGTCACCTAGTGCAG”, the binding signal is 4530 fluorescence intensity (a.u.).

Take “ACGTGGGCGCGGGTAAGCCGTGGCGGGCGGTGACGATGGACGGAGTCACCTAGTGCAG”: the binding signal is 3430 fluorescence intensity (a.u.).

For “AGAACTTCAGACCGCTATGTCGACAATAGTTAGATAGGCTCGGAGTCACCTAGTGCAG”, the binding signal was 3220 fluorescence intensity (a.u.).

Consider “TGAGTCTAATTAGTCCATGATTAGTCGTAAGTGCTACGATCGGAGTCACCTAGTGCAG”, for which the binding signal was 14800 fluorescence intensity (a.u.).

With “GTACGATCCAGCGGGGCAACTCTGACACGGGCCGCGCCACCGGAGTCACCTAGTGCAG”, the binding signal was 3970 fluorescence intensity (a.u.).

For “GGGACCTGGCGCCGCGCGGTCGTGTCGTCGTGGCTGCCTGCGGAGTCACCTAGTGCAG”, the binding signal is 3900 fluorescence intensity (a.u.).

As to “ACAAGATGCAGGGGACTGATGAGTCATAAAGCTGATGAGCCGGAGTCACCTAGTGCAG”, the binding signal is 8740 fluorescence intensity (a.u.).

As to “TCGAGATGCCATGGTACTGTCTGACGTCGCCTTTGATTGTCGGAGTCACCTAGTGCAG”, the binding signal is 5060 fluorescence intensity (a.u.).

As for “AACTCCGAATTCCTCCTCCTCATCGCGTGATTCCGTTTTGCGGAGTCACCTAGTGCAG”, the binding signal is 3510 fluorescence intensity (a.u.).

Consider “CAGGGGCAGGTTTCTGCATGGTCGAGTCCAAGATGCACAACGGAGTCACCTAGTGCAG”, for which the binding signal was 24100 fluorescence intensity (a.u.).

Turning to “AAAGTTTTGCATGCCGCTGTCGAAGTCGGCTTCCGCGTAGCGGAGTCACCTAGTGCAG”, the binding signal is 32300 fluorescence intensity (a.u.).

“CTCTGTGCGCCAGTGGTGAAGAGGGTGTCGTGGCGGTGGGCGGAGTCACCTAGTGCAG”: the binding signal was 5100 fluorescence intensity (a.u.).

Consider “ATATAAAATTAGTTTTATTAAATCTAAATTGAATATATTTCGGAGTCACCTAGTGCAG”, for which the binding signal is 6750 fluorescence intensity (a.u.).

Regarding “ATTATGGTAGCTTGCATCATGCATGTGCTCCTTAGTTATGCGGAGTCACCTAGTGCAG”, the binding signal is 4700 fluorescence intensity (a.u.).

As to “TGGGAGCACGGTTGTCTGCCGATGACGTGACCGGCGTCAGCGGAGTCACCTAGTGCAG”, the binding signal is 7980 fluorescence intensity (a.u.).

As to “CTCTTGCATGAGTCTATCTATTGTCAGGTACCTTTGGAGCCGGAGTCACCTAGTGCAG”, the binding signal is 4080 fluorescence intensity (a.u.).

As for “ATTCAGGCTCTCTTCCATCTCCTGGAAGTCCACATCAACGCGGAGTCACCTAGTGCAG”, the binding signal was 4660 fluorescence intensity (a.u.).

On to “ATGTAGTACTAGGACACATCACATCCGGTACTAGGTTGCTCGGAGTCACCTAGTGCAG”, for which the binding signal is 3390 fluorescence intensity (a.u.).

For the sequence “AAGATATATGTGTGTATGACAGGTAGGACCAGACAATAGACGGAGTCACCTAGTGCAG”, the binding signal was 3210 fluorescence intensity (a.u.).

On to “CCCTCTCCTCCCGCACGCGCGCGTCGGCGCCACCACCGGGCGGAGTCACCTAGTGCAG”, for which the binding signal was 3240 fluorescence intensity (a.u.).

“TTTAAAAGATAAACAACATGCACGTGTTCTCATCAGATGTCGGAGTCACCTAGTGCAG”: the binding signal was 37100 fluorescence intensity (a.u.).

As for “TACTTTAAGTACATGTATTAGTCAGCTGATATATACCTCACGGAGTCACCTAGTGCAG”, the binding signal was 4310 fluorescence intensity (a.u.).

In the case of “AGGGAGGTCGCGCGTGTCAGACTATATTAGGTATTTCCCCCGGAGTCACCTAGTGCAG”, the binding signal is 3520 fluorescence intensity (a.u.).

In the case of “GTTCTGCTAATCTGTAATGTTTCTTTTGTTTGTCATATCTCGGAGTCACCTAGTGCAG”, the binding signal is 3610 fluorescence intensity (a.u.).

Consider “CTCCAACTTGTTCGGTTGTGTCACCCCGGTCTCTAAACTTCGGAGTCACCTAGTGCAG”, for which the binding signal is 3170 fluorescence intensity (a.u.).

For the sequence “CCACCGTCAGTGACTCGGCTTTGACGCACCATTCCGACCGCGGAGTCACCTAGTGCAG”, the binding signal is 6260 fluorescence intensity (a.u.).

Take “TAAACATATATGCATGGATGATGTCATGGAAACATGGATTCGGAGTCACCTAGTGCAG”: the binding signal is 4690 fluorescence intensity (a.u.).

With “CGCCTCAAGCAGTGGCGATGGCGGCGGCGGTGCGGTGCGGCGGAGTCACCTAGTGCAG”, the binding signal is 3640 fluorescence intensity (a.u.).

As to “TATGACATGTGGGCCAACTGCCAAGCAGCCTTACTTGACGCGGAGTCACCTAGTGCAG”, the binding signal was 3360 fluorescence intensity (a.u.).

Regarding “TTATGGCTATTCTGATAAGCCTAATCCACGTGAGCTTGGTCGGAGTCACCTAGTGCAG”, the binding signal is 6480 fluorescence intensity (a.u.).

Regarding “AACCCTGGCCGGGTAGCGTACGTCGTAGTACTTATAAGTACGGAGTCACCTAGTGCAG”, the binding signal is 37700 fluorescence intensity (a.u.).

Regarding “CCTTTTCCGCTTTAAAACACCACACAGTGACACACACACCCGGAGTCACCTAGTGCAG”, the binding signal is 5500 fluorescence intensity (a.u.).
